Measured values as given in ChEMBL document CHEMBL4665641, “Lead optimization and efficacy evaluation of quinazoline-based BET family inhibitors for potential treatment of cancer and inflammatory diseases” (Bioorg Med Chem Lett, 2019).

What was measured:
Type in all cases: functional
Kasumi 1 [1] = experiment: Antitumor activity against human Kasumi-1 cells xenografted in CB17 SCID mouse assessed as inhibition of tumor growth at 10 mg/kg, po QD for 25 days; settings: Kasumi 1, po, 600 h, time 25 day, read-out: TGI
Kasumi 1 [2] = experiment: Antitumor activity against human Kasumi-1 cells xenografted in CB17 SCID mouse assessed as inhibition of tumor growth at 40 mg/kg, po QD for 25 days; settings: Kasumi 1, po, 600 h, time 25 day, read-out: TGI
Kasumi 1 [3] = experiment: Antitumor activity against human Kasumi-1 cells xenografted in CB17 SCID mouse assessed as inhibition of tumor growth at 10 mg/kg, po QD for 29 days; settings: Kasumi 1, po, 696 h, time 29 day, read-out: TGI

CCNC(=O)C[C@@H]1N=C(c2ccc(Cl)cc2)c2cc(OC)ccc2-n2c(C)nnc21 [MOLIBRESIB] showed an inhibition in vivo at 10 mg/kg (Kasumi 1 [1]) of 79.7%, an inhibition in vivo at 40 mg/kg (Kasumi 1 [2]) of 97.4% and an inhibition in vivo at 10 mg/kg (Kasumi 1 [3]) of 85.6%.
